Source: US20180094062A1 (Hoffmann-La Roche, published 2018)
Numbering of substitutions follows the chain as printed. Results are given in words; binding and its absence hold for the method and conditions named. Some results given as binding are weak or reduced against the parent protein; the word gives no strength.

Amino acid sequences for entries named in this document (tags omitted). A change or cut given only in a name is not applied to a line headed by its entry.
UniProt P21860: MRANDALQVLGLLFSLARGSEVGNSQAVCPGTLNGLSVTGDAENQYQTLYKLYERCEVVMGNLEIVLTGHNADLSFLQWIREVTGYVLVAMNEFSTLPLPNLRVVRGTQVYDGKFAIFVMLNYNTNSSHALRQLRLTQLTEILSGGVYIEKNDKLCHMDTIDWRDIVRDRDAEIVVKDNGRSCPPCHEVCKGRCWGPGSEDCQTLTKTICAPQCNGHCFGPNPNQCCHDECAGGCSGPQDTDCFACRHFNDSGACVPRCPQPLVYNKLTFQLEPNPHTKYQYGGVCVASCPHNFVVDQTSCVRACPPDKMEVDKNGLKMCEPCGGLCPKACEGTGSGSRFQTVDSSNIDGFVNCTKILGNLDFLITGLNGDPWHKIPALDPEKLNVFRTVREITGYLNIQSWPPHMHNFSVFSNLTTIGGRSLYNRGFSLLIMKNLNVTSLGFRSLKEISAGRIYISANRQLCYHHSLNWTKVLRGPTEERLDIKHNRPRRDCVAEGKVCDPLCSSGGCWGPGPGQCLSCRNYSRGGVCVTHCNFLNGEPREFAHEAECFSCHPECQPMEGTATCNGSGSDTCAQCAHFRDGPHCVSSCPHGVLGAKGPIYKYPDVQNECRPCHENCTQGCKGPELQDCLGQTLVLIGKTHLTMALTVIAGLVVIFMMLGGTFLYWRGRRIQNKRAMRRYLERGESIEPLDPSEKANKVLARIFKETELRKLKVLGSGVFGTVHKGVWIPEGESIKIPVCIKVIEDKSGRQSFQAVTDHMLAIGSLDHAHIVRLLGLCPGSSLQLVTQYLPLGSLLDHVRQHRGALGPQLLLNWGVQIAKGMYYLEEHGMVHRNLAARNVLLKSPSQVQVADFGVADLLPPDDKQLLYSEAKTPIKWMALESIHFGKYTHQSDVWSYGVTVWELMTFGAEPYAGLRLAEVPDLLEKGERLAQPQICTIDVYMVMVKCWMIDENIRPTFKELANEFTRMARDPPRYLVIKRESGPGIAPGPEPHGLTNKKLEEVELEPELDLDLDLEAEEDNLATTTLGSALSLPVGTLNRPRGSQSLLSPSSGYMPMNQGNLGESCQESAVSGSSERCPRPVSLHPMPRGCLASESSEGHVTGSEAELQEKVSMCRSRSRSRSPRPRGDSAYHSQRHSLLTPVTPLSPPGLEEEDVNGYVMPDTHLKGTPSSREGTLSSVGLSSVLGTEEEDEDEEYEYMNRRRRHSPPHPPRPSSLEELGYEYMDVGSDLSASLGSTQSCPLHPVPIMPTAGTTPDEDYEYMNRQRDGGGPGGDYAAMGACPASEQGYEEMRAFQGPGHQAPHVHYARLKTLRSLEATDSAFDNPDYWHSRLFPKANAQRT

How the values were obtained:
[1] = target: HER3 ECD-HRG complex (Heregulin-activated Her-3 ECD) (human) (UniProt P21860); assay: SPR
[2] = target: human HER3, full length, on cells (T47D, MCF7, transfected HEK293) (human) (UniProt P21860); assay: FACS on T47D cells
[3] = target: HER3 ECD-HRG complex (Heregulin-activated Her-3 ECD) (human) (UniProt P21860); assay: SPR functional assays
[4] = target: human recombinant HER3 Extracellular Domain (HER3 ECD) (human) (UniProt P21860); assay: SPR two-state analysis
[5] = target: HER3 ECD-HRG complex (Heregulin-activated Her-3 ECD) (human) (UniProt P21860); assay: SPR, antibody captured
[6] = target: human recombinant HER3 Extracellular Domain (HER3 ECD) (human) (UniProt P21860); assay: SPR, antibody captured
[7] = target: T1, recombinant Thermus thermophilus SlyD FKBP-Her3 (TtSlyD-FKBP-Her3); assay: SPR, antibody captured
T1 sequence: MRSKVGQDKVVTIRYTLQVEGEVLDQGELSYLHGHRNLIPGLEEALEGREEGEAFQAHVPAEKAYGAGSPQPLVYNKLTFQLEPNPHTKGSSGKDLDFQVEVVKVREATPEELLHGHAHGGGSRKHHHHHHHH

[8] = target: human recombinant HER3 Extracellular Domain (HER3 ECD) (human) (UniProt P21860); assay: SPR, antibody captured, 25 C
[9] = target: T1, recombinant Thermus thermophilus SlyD FKBP-Her3 (TtSlyD-FKBP-Her3); assay: SPR, antibody captured, 25 C
[10] = target: HER3 ECD-HRG complex (Heregulin-activated Her-3 ECD) (human) (UniProt P21860); assay: SPR sensorgram overlay, 100 nM
[11] = target: human recombinant HER3 Extracellular Domain (HER3 ECD) (human) (UniProt P21860); assay: SPR Biacore 4000 kinetic screening
[12] = target: T1, recombinant Thermus thermophilus SlyD FKBP-Her3 (TtSlyD-FKBP-Her3); assay: SPR Biacore 4000 kinetic screening
[13] = target: human HER3, full length, on cells (T47D, MCF7, transfected HEK293) (human) (UniProt P21860); assay: IHC on fixed transfected HEK293 cells
[14] = target: HER3 ECD-HRG complex (Heregulin-activated Her-3 ECD) (human) (UniProt P21860); assay: SPR Biacore T200, antibody captured, 25 C
[15] = target: human recombinant HER3 Extracellular Domain (HER3 ECD) (human) (UniProt P21860); assay: SPR Biacore T200, antibody captured, 25 C
[16] = target: human recombinant HER3 Extracellular Domain (HER3 ECD) (human) (UniProt P21860); assay: ELISA, antigen coated, hybridoma supernatant
[17] = target: human HER3, full length, on cells (T47D, MCF7, transfected HEK293) (human) (UniProt P21860); assay: IHC on fixed transfected HEK293 cells, 1 µg/ml
[18] = target: T2, HER3 ECD peptide hairpin (β-hairpin of HER3), overlapping immobilized 15-mer peptides (human); assay: CelluSpots array of overlapping 15-mer peptides
T2 sequence (peptide): PQPLVYNKLTFQLEPNPHT

[19] = target: human recombinant HER3 Extracellular Domain (HER3 ECD) (human) (UniProt P21860); assay: SPR Biacore 3000 two-state analysis, Her-3 ECD at 1 µM, 25 C
[20] = target: human recombinant HER3 Extracellular Domain (HER3 ECD) (human) (UniProt P21860); assay: SPR (Biacore) overlay, 100 nM Her-3 ECD without Heregulin on M-08-11
[21] = target: HER3 ECD-HRG complex (Heregulin-activated Her-3 ECD) (human) (UniProt P21860); assay: SPR (Biacore) overlay, 100 nM Heregulin/Her-3 ECD complex on M-08-11
[22] = target: HER3 ECD-HRG complex (Heregulin-activated Her-3 ECD) (human) (UniProt P21860); assay: SPR (Biacore) overlay, 90 nM Heregulin*Her-3 ECD complex on M-08-11
[23] = target: human HER3, full length, on cells (T47D, MCF7, transfected HEK293) (human) (UniProt P21860); assay: FACS on T47D cells without Heregulin; 1 µg M-08-11, 0 to 240 min at 37 °C, PE goat anti-mouse IgG
[24] = target: HER3 ECD-HRG complex (Heregulin-activated Her-3 ECD) (human) (UniProt P21860); assay: Interaction Map (TraceDrawer) calculated from SPR data of captured antibody with HER-3-ECD-HRG at 25 °C
[25] = target: human HER3, full length, on cells (T47D, MCF7, transfected HEK293) (human) (UniProt P21860); assay: IHC on formalin-fixed, paraffin-embedded HEK293 cells transiently transfected with full length HER3; antibody at 1 µg/ml
[26] = target: T2, HER3 ECD peptide hairpin (β-hairpin of HER3), overlapping immobilized 15-mer peptides (human); assay: CelluSpots array of overlapping 15-mer peptides of the HER family hairpins, antibody at 1 µg/mL, chemiluminescence (paragraph 389 to paragraph 391)
[27] = target: human HER3, full length, on cells (T47D, MCF7, transfected HEK293) (human) (UniProt P21860); assay: FACS on T47D cells treated with the Heregulin fragment (HRG); 1 µg M-08-11, 0 to 240 min at 37 °C, PE goat anti-mouse IgG
[28] = target: human recombinant HER3 Extracellular Domain (HER3 ECD) (human) (UniProt P21860); assay: SPR (Biacore 3000, 25 °C), M-08-11 captured from hybridoma supernatant, Her-3 ECD injected at 1 µM for rising injection times, curves normalised
[29] = target: human HER3, full length, on cells (T47D, MCF7, transfected HEK293) (human) (UniProt P21860); assay: IHC on formalin-fixed, paraffin-embedded HEK293 cells transiently transfected with full length HER3; NC = untransfected cells; antibody at 1 µg/ml
[30] = target: HER3 ECD-HRG complex (Heregulin-activated Her-3 ECD) (human) (UniProt P21860); assay: SPR (Biacore 3000, 25 °C), M-08-11 captured from hybridoma supernatant, (5:1) Heregulin/Her3-ECD complex injected at 100 nM for 30, 90, 180 and 300 s, curves normalised
SBP-tagged HER3-ECD = target: T3, SBP-tagged HER3-ECD (human, UniProt P21860 20-643); assay: plate assay: SBP-tagged HER3-ECD on streptavidin plate, antibody titrated, 10 nM Europium-labeled Heregulin-beta detected by time-resolved fluorescence; the antibody raises the Heregulin signal
T3 construct: not shown: SBP tag

[31] = target: T4, HER4 ECD peptide hairpin (β-hairpin of HER4), overlapping immobilized 15-mer peptides (human); assay: CelluSpots array of overlapping 15-mer peptides
T4 sequence (peptide): PQTFVYNPTTFQLEHNFNA

[32] = target: human recombinant HER3 Extracellular Domain (HER3 ECD) (human) (UniProt P21860); assay: SPR epitope binning, M-05-74 captured, Her-3 ECD 1.5 µM, 37 C
[33] = target: human recombinant HER3 Extracellular Domain (HER3 ECD) (human) (UniProt P21860); assay: SPR (Biacore) overlay, 100 nM Her-3 ECD without Heregulin on M-05-74
[34] = target: HER3 ECD-HRG complex (Heregulin-activated Her-3 ECD) (human) (UniProt P21860); assay: SPR (Biacore) overlay, 100 nM Heregulin/Her-3 ECD complex on M-05-74
[35] = target: HER3 ECD-HRG complex (Heregulin-activated Her-3 ECD) (human) (UniProt P21860); assay: SPR (Biacore) overlay, 90 nM Heregulin*Her-3 ECD complex on M-05-74
[36] = target: T4, HER4 ECD peptide hairpin (β-hairpin of HER4), overlapping immobilized 15-mer peptides (human); assay: CelluSpots array of overlapping 15-mer peptides of the HER family hairpins, antibody at 1 µg/mL, chemiluminescence (paragraph 389 to paragraph 391)

Measured: binding

B1: anti-HER3 antibody M-08-11 (antibody, V domains shown)
VH: QAYLQQSGAELMRPGASVRMSCQASGYTFTSYTIHWLKQTPRQGLEWIGAIYPRNGDFSYNQKFKDKASLTVDTSSSTAYMHLSSLTSEDSAVYFCARTINYGDWFAYWGQGTLVTVSA
VL: DIQMIQSPASLFVSEGETVIITCRASENIYSNLAWYHQKKGKSPQVLVYAAIKLADGVPLRFSGSGSGTQFSLKINSLQSEDFGSYYCQHFWGPPYTFGSGTNLEIK
notes: mouse monoclonal antibody from hybridoma, tested as hybridoma supernatant or as antibody; also called M-011
not listed: [31] | [32] | [33] | [34] | [35] | [36]
binds: all other assays above

B2: anti-HER3 antibody M-43-01 (antibody, V domains shown)
VH: EVQLQQSGTVLARPGASVKMSCKASDYTFSNYWVHWVKQRPGQGLEWIGAIYPGNGDSTYYQKFKGKATLTAVTSTSTAYMDLSSLTNGDSAVYFCTRSGVGYNYYFDYWGQGTTLTVSS
VL: DIQMTQSPASLSASVGETVTITCRASENIYSNLAWYQQKQGKSPQLLVYIATNLADGVPSRFSGSGSGTQFSLKINSLQPEDLGSYYCQHFYGTPFTFGTGTKLEIE
notes: mouse hybridoma clone
binds: [1] | [5] | [7] | [9] | [12] | [14] | [24]

B3: anti-HER3 antibody M-46-01 (antibody, V domains shown)
VH: QIQLQQSGPQLVRPGASVKISCKASGYSFTSYWMHWVKQRPGRGLEWIGMIDPSDGVTRLNQKFKDKATLTVDNSSSTAYMQLSSPTSEDSAVHYCARVDVLYWYFDVWGAGTTVTVSS
VL: DIVLTQSPASLAVSLGQRATISCRASKSISISGYSYMHWYQQKAGQPPKLLIYLTSNLESGVPARFSGSGSGTDFTLNIHPVEEEDAATYYCHHSRELPFTFGSGTKLEIK
notes: mouse hybridoma clone
binds: [1] | [5] | [6] | [7] | [8] | [9] | [11] | [12] | [13] | [14] | [15] | [16] | [17] | [24] | [29] | SBP-tagged HER3-ECD

B4: anti-HER3/HER4 antibody M-05-74 (antibody, V domains shown)
VH: QVQLQQSGAELAKPGASVKMSCKTSGYTLTDYWIHWVKQRPGQGLEWIGYINPYTGYTESNQKFKDKATLTADKSSNTAYIQLSSLTSEDSAVYYCARPYYYGDYWGQGTTLTVSS
VL: QIVLTQSPAIMSASPGERVTITCSASSSVSYMHWFQQKPGTSPKLLIYSTSNLASGVPARFSGSGSGTSYSLTISRMEAEDAATYYCQQRSSYPFTFGSGTKLEIK
notes: also called M-074; M-5-74
binds: [1] | [3] | [10] | [18] | [31] | [32] | [33] | [34] | [35] | [26] | [36]

B5: anti-HER3 antibody M-17-02 (antibody, V domains shown)
VH: EVQLQQSGTVLARPGASVKMSCKASGYSFTSYWIHWVKQRPGQGLEWIGAIYPGNSDTTYNQKFKGKAKLTAVTSASTAYMELSSLTNEDSAVYYCARTGVWTSYYFDYWGQGTTLTVSS
VL: B2 VL with I50A, K74R, L83F, E107K
notes: mouse hybridoma clone
binds: [1] | [5] | [7]
